This is an account of results in paper PMC9916828.

Chains of the proteins cited; added tags and fusions are not shown.
UniProt P37238: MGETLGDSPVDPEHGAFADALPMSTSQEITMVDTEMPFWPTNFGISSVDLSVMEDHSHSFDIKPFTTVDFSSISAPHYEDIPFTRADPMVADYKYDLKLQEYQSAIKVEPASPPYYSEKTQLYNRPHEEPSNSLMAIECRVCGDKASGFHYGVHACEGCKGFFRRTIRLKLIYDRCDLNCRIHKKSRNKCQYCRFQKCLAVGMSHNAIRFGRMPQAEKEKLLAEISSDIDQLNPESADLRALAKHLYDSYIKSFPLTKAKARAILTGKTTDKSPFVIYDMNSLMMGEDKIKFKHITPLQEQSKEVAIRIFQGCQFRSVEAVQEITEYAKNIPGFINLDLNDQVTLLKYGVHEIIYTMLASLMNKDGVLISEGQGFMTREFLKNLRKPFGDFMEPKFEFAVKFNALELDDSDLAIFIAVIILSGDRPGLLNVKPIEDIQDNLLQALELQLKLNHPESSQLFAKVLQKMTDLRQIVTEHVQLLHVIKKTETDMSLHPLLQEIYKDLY
UniProt P19785: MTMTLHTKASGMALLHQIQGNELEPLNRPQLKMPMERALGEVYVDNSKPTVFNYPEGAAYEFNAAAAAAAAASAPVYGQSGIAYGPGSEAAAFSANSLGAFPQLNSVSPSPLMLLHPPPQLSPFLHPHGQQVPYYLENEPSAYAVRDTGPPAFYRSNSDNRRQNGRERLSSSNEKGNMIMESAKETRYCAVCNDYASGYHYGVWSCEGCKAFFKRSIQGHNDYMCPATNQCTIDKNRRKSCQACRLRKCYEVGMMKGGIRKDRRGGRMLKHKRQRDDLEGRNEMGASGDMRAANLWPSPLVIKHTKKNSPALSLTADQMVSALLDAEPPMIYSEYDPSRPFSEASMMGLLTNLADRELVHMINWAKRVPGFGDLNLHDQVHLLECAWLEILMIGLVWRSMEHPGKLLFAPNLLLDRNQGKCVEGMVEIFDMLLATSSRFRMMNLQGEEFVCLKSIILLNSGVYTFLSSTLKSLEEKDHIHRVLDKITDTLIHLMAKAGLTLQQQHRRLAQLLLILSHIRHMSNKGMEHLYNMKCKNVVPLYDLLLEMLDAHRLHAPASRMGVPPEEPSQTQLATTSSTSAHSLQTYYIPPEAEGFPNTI
UniProt P37231: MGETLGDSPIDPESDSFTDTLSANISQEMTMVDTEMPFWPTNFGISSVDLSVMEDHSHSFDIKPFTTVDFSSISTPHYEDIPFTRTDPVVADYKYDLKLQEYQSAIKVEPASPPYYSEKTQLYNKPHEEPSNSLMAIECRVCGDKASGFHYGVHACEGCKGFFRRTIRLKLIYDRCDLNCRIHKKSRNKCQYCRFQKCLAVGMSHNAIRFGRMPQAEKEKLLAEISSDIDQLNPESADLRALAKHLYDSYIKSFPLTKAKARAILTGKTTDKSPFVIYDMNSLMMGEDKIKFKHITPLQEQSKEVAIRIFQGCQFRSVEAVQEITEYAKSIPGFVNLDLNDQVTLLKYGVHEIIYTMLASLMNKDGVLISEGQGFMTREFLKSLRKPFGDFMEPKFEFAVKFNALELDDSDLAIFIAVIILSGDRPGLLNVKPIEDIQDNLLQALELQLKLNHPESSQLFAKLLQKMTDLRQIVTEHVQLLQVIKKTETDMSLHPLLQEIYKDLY

No constants are given. Whether binding was seen depends on the method and setting. For some of these results: Binding seen in cells or lysates may run through a third protein. Some entries that bind do so weakly or less than the wild type.

Experiment [1] deals with T1, topoisomerase 1 (TOP1), endogenous mouse (mouse (endogenous in brain and cultured neurons)) (UniProt Q04750).
T1 sequence: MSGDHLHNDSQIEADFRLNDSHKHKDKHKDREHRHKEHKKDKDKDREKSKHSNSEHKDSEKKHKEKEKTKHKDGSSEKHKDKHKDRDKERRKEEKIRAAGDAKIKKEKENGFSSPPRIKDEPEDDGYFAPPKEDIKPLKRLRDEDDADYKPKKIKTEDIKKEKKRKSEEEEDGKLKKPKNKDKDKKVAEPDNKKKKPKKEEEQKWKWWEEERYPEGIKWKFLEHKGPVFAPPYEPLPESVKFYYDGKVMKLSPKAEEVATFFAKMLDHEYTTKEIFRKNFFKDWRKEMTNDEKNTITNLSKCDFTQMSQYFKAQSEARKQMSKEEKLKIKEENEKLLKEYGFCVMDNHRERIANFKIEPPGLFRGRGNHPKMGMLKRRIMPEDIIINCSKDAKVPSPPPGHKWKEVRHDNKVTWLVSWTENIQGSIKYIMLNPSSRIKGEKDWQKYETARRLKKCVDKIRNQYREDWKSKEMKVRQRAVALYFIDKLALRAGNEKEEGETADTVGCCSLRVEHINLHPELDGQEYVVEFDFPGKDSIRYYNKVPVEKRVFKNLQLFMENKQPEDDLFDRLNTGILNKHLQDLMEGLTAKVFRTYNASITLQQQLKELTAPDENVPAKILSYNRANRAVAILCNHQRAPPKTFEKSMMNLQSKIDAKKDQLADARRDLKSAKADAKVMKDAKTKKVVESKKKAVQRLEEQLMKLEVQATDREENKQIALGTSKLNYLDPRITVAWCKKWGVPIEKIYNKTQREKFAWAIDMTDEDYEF
Put plainly: proximity ligation; fixed, permeabilised cultured mouse cortical (and cerebellar) neurons from wild-type or L1 mutant mice; mouse L1 antibody C-2 with goat or rabbit antibodies against the partner, or rabbit L1 antibody ab12399 with mouse antibodies; cells treated with vehicle, 1 µM aprotinin, 50 µg/mL L1 antibody 557 or siRNAs.

Experiment [2] concerns the target peroxisome proliferator-activated receptor γ (PPARγ), endogenous mouse (mouse (endogenous in brain and cultured neurons)) (UniProt P37238). Described as above.
For experiment [3], the target named is estrogen receptor α (ERα), endogenous mouse (mouse (endogenous in cultured cortical neurons)) (UniProt P19785). Described as above.
For experiment [4], the target named is T2, splicing factor proline/glutamine-rich (SFPQ), endogenous mouse (mouse (endogenous in cultured cortical neurons)) (UniProt Q8VIJ6).
T2 sequence: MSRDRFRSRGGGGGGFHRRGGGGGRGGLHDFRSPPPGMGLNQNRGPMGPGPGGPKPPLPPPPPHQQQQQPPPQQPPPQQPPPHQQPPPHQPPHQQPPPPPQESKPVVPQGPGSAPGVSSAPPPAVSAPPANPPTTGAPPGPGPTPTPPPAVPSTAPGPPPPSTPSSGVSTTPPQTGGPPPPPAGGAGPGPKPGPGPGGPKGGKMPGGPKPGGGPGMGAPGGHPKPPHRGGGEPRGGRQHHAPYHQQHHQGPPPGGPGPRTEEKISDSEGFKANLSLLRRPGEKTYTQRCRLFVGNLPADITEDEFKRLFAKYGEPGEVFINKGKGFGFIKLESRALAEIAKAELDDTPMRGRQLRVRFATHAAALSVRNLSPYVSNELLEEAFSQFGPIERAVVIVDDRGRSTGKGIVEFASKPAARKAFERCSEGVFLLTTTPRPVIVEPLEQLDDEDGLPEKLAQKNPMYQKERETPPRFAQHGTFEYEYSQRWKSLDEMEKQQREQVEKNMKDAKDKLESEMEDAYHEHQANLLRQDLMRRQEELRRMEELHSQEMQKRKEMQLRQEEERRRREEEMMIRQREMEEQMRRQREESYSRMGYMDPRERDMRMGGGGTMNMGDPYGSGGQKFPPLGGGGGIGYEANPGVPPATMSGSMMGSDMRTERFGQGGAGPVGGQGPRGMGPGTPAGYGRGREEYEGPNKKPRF
The experiment is described as above.

Experiment [5] addresses recombinant full-length human PPARγ (PPARgamma FL) (human) (UniProt P37231). Put plainly: ELISA; competition ELISA: 2.5 µM L1-ICD preincubated for 1 h without or with a five-fold molar excess of L1 peptides P1-P5, then incubated with substrate-coated TOP1 or PPARγ; detection with mouse L1 antibody C-2; both purified. In general terms: In an ELISA, binding on a coated surface is turned into a signal by an enzyme label.

Experiment [6] has the same target. In words: ELISA; TOP1 or PPARγ substrate-coated (25 µL of 10 or 20 µg/mL, overnight, 4 °C, 384-well plates), blocked with 2% BSA in PBS; increasing concentrations of His-tagged L1-ICD for 1 h at room temperature; detection with mouse L1 antibody C-2 and HRP-coupled secondary antibody; both purified.

As for “L1 with a mutation of the dibasic sequence RKHSKR to SKHSSS at positions 858–863 (L1/858–863 mutant) (from UniProt P11627 20-1260)”, the binding result in experiment [1] and in experiment [2] was “binds” in each case.
Take “L1 with an arginine-to-alanine exchange at position 687 (L1/687 mutant) (from UniProt P11627 20-1260)”: the binding entry in experiment [1], in experiment [3], in experiment [2] and in experiment [4] was “binds” in each case.
Turning to “recombinant His-tagged L1-ICD (intracellular domain of cell adhesion molecule L1) (from UniProt P11627 1147-1260) (domain or fragment)”, the binding entry in experiment [5] and in experiment [6] was “binds” in each case.
As to CSVDVQFNEDGSFIGQYSGK [synthetic L1 peptide P4], in experiment [5], the binding entry was “binds”.
On the same count and under the same terms, under CFIKRSKGGKYSVKDKEDTQVDSEARPMKDETFGE [synthetic L1 peptide P1] stands “binds”.
